Where a name gives a salt, the structure may show the parent alone. Some of the results follow. Hit calls seldom repeat between salt and free forms of one compound.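 Kinases were expressed as nanoluciferase fusions in K562 cells and luminescence was read every 4 h between 2 and 18 h as percent of control, DMSO set to 100% and a positive control to 0%. A time point counts as decreased when the signal drops significantly (2 sigma). The hit call is the authors' own, does not follow from the count of time points alone, and its rule is not shown.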
Target: CDK10 (UniProt Q15131)
Experiment: kinase-Nluc reporter destabilization hit call (1 = scored as downregulated) (binary); higher = compound decreases kinase abundance
Settings: 2.5 µM; K562; 2-18 h

Chains of the proteins cited; added tags and fusions are not shown. Lines headed by an entry give the natural chain unless they say otherwise; changes in a name come on top.
UniProt Q15131: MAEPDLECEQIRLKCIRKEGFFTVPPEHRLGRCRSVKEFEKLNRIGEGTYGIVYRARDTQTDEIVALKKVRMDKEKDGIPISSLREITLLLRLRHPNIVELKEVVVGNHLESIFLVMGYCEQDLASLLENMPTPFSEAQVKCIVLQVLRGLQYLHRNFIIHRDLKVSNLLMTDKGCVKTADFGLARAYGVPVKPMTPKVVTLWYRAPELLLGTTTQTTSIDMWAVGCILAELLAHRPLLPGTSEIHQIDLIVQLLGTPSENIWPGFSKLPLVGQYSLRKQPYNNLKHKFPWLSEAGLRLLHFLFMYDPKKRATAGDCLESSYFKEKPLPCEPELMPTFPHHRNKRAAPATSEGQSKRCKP

kinase-Nluc reporter destabilization hit call, inactive:
C=CC(=O)Nc1cc(Nc2nccc(-c3cn(C)c4ccccc34)n2)c(OC)cc1N(C)CCN(C)C [Osimertinib mesylate] 0
c1cc(-c2cnn3cc(-c4ccc(OCCN5CCCCC5)cc4)cnc23)ccn1 [Dorsomorphin] 0
CN(C)C/C=C/C(=O)Nc1cc2c(Nc3ccc(F)c(Cl)c3)ncnc2cc1O[C@H]1CCOC1 [Afatinib (dimaleate)] 0
C=CC(=O)Nc1cc(Nc2nccc(-c3cn(C)c4ccccc34)n2)c(OC)cc1N(C)CCN(C)C [Osimertinib] 0
CN(C)C(=O)c1cc2cnc(Nc3ccc(N4CCNCC4)cn3)nc2n1C1CCCC1 [Ribociclib hydrochloride] 0
COc1ccc(S(=O)(=O)Nc2ccccc2CN(C)C/C=C/c2ccc(Cl)cc2)cc1 [KN-92 (hydrochloride)] 0
COc1ccc(S(=O)(=O)Nc2ccccc2CN(C)C/C=C/c2ccc(Cl)cc2)cc1 [KN-92 (phosphate)] 0

Same assay, conditions: 10 µM; K562; 2-18 h

kinase-Nluc reporter destabilization hit call, inactive:
CCS(=O)(=O)N1CCN(c2ccc(Nc3ncc(C(N)=O)c(NC4CC4)n3)cc2)CC1 [Cerdulatinib (hydrochloride)] 0
C[C@@H](N)c1ccc(C(=O)Nc2ccnc3[nH]ccc23)cc1 0
COc1ncc(F)cc1CNc1ccc(Cc2c[nH]c3ncc(C)cc23)c(F)n1 0
CCS(=O)(=O)N1CC(CC#N)(n2cc(-c3ncnc4[nH]ccc34)cn2)C1 [Baricitinib (phosphate)] 0
COC(=O)[C@H](CC(C)C)NC(=O)c1ccc(NC[C@@H](N)CS)cc1-c1cccc2ccccc12 [GGTI298 (Trifluoroacetate)] 0
COCCOc1cc(F)c2c(Nc3ccc(NC(=O)Cn4cc(C(C)C)nn4)cc3)ncnc2c1 [AZD3229 Tosylate] 0
CC(C)(C)n1nc(-c2cccc3ccccc23)c2c(N)ncnc21 [1-Naphthyl PP1] 0
N#CCNC(=O)c1ccc(-c2ccnc(Nc3ccc(N4CCOCC4)cc3)n2)cc1 [Momelotinib sulfate] 0
Cn1ncc(Cl)c1-c1cc(C(=O)N[C@H](CN)Cc2cccc(F)c2)sc1Cl [Afuresertib] 0
CNC(=O)c1ccc(Nc2ncc(C(F)(F)F)c(NCc3nccnc3N(C)S(C)(=O)=O)n2)cc1 [Defactinib] 0
O=C(O)c1ccc2c(c1)nc(Nc1cccc(Cl)c1)c1ccncc12 [Silmitasertib] 0
O=C(Nc1cnn2ccc(N3CCC[C@@H]3c3cc(F)ccc3F)nc12)N1CC[C@H](O)C1 [Larotrectinib] 0
COc1cc2nccc(Oc3ccc(NC(=O)C4(C(=O)Nc5ccc(F)cc5)CC4)cc3)c2cc1OC [Cabozantinib (S-malate)] 0
CN(C)C(=N)NC(=N)N [Metformin (hydrochloride)] 0
COc1ccnc(C[S+]([O-])c2nc3cc(-n4cccc4)ccc3[nH]2)c1C (configuration not stated) [Ilaprazole (sodium)] 0
C#Cc1cccc(Nc2ncnc3cc4c(cc23)OCCOCCOCCO4)c1 [Icotinib (Hydrochloride)] 0
CC(C)NC[C@@H](C(=O)N1CCN(c2ncnc3c2[C@H](C)C[C@H]3O)CC1)c1ccc(Cl)cc1 [Ipatasertib] 0
CC(=O)c1c(C)c2cnc(Nc3ccc(N4CCNCC4)cn3)nc2n(C2CCCC2)c1=O [Palbociclib (monohydrochloride)] 0
C#Cc1cccc(Nc2ncnc3cc(OCCOC)c(OCCOC)cc23)c1 [Erlotinib] 0
OCCn1cc(-c2cnc3nnn(Cc4ccc5ncccc5c4)c3n2)cn1 0
CCN(CC)CC(=O)Nc1c(C)cccc1C [Lidocaine] 0
CCS(=O)(=O)N1CCN(c2ccc(Nc3ncc(C(N)=O)c(NC4CC4)n3)cc2)CC1 [Cerdulatinib] 0
C#Cc1cccc(Nc2ncnc3cc(OCCOC)c(OCCOC)cc23)c1 [Erlotinib (Hydrochloride)] 0
O=C(c1ccc(F)c(F)c1Nc1ccc(I)cc1F)N1CC(O)([C@@H]2CCCCN2)C1 [Cobimetinib] 0
CC(C)(C)n1nc(-c2cccc3ccccc23)c2c(N)ncnc21 [1-Naphthyl PP1 (hydrochloride)] 0
CC(=O)c1c(C)c2cnc(Nc3ccc(N4CCNCC4)cn3)nc2n(C2CCCC2)c1=O [Palbociclib (isethionate)] 0

Already shown: an excerpt of the list.
kinase-Nluc reporter destabilization hit call, inactive:
C#Cc1cccc(Nc2ncnc3cc(OCCOC)c(OCCOC)cc23)c1 [Erlotinib] 0
OCCn1cc(-c2cnc3nnn(Cc4ccc5ncccc5c4)c3n2)cn1 0
CCN(CC)CC(=O)Nc1c(C)cccc1C [Lidocaine] 0

Target: CDK2 (UniProt P24941)
Experiment: as above
Settings: 2 µM; K562; 2-18 h

kinase-Nluc reporter destabilization hit call, inactive:
CCc1nc(C(N)=O)c(Nc2ccc(N3CCC(N4CCN(C)CC4)CC3)c(OC)c2)nc1NC1CCOCC1 [Gilteritinib] 0
CCc1nc(C(N)=O)c(Nc2ccc(N3CCC(N4CCN(C)CC4)CC3)c(OC)c2)nc1NC1CCOCC1 [Gilteritinib hemifumarate] 0
Cc1[nH]c(/C=C2\C(=O)Nc3ccc(F)cc32)c(C)c1C(=O)NCCN1CCCC1 [Toceranib (phosphate)] 0
Cc1[nH]c(/C=C2\C(=O)Nc3ccc(F)cc32)c(C)c1C(=O)NCCN1CCCC1 [Toceranib] 0

Source: the supplement of paper PMC12823440, “Inhibitors supercharge kinase turnover through native proteolytic circuits” (Nature, 2025)
